Measurements: article PMC8501799, “Constitutive signal bias mediated by the human GHRHR splice variant 1” (Proceedings of the National Academy of Sciences of the …, 2021)
Residue numbers refer to the chain shown, from its start. Results are given in words; binding and its absence hold for the method and conditions named. In cells and extracts the contact can be indirect. Some entries that bind do so weakly or less than the wild type. For some of these results: Sequences can lack the tags named with a protein.

How the values were obtained:
Test in all cases: FRET or BRET; β-arrestin 1/2 recruitment assay in live HEK293T cells co-transfected with receptor-Rluc8 and β-arrestin 1/2-Venus (1:9 mass ratio); coelenterazine h; started with 250 μM GHRH; AUC of the BRET time course (535 nm/470 nm) normalised to WT GHRHR = 100%
[1] = target: T1, HA-Flag-GHRHR-Rluc8 (human) (UniProt Q02643)
T1 sequence: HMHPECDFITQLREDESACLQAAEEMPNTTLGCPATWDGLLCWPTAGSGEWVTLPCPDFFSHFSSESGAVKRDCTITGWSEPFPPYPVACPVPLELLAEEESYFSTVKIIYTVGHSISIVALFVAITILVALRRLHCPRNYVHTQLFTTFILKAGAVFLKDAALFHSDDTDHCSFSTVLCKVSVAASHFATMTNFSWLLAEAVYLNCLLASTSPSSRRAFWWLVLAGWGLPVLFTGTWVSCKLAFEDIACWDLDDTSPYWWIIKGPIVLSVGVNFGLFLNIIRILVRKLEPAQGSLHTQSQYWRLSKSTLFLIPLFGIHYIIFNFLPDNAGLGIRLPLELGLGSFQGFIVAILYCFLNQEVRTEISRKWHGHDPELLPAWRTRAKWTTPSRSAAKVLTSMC

GHRHR F82A (human) = target: T2, GHRHR F82A (human) (UniProt Q02643)
T2 sequence: T1 sequence with F60A

GHRHR F85A (human) = target: T3, GHRHR F85A (human) (UniProt Q02643)
T3 sequence: T1 sequence with F63A

GHRHR L62A (human) = target: T4, GHRHR L62A (human) (UniProt Q02643)
T4 sequence: T1 sequence with L40A

GHRHR L34A (human) = target: T5, GHRHR L34A (human) (UniProt Q02643)
T5 sequence: T1 sequence with L12A

[2] = target: T6, GHRHR with all four ECD residues L34, L62, F82 and F85 substituted with alanine (human) (UniProt Q02643)
T6 sequence: T1 sequence with L12A, L40A, F60A, F63A

[3] = target: T7, truncated GHRHR that lacks the first 89 residues (human) (UniProt Q02643)
T7 sequence: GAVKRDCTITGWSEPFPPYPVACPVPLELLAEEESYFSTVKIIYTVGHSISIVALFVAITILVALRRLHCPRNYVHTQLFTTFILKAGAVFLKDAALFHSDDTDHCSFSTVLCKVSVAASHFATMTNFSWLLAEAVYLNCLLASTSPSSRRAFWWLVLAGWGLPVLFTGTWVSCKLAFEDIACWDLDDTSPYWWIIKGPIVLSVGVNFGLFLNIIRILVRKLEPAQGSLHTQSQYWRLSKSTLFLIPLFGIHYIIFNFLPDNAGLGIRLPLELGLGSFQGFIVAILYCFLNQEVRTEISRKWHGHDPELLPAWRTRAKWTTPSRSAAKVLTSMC

binding [1]: binds
binding (GHRHR F82A (human)): binds
binding (GHRHR F85A (human)): binds
binding (GHRHR L62A (human)): binds
binding (GHRHR L34A (human)): binds
binding [2]: binds
binding [3]: binds
Substance: β-arrestin 2-Venus (from UniProt P32121 1-409)
